# In US7169907B2, “Derivatives, immunogens, and antibodies for detecting ecstasy-class drugs” (Roche Diagnostics Operations, Inc., priority 2002, dated 2007):
# At least one structure is not confirmed: it was looked up by name or label, or the drawing left a doubt.
# Test system: antibody NEAMP-1.3
# Test: Cross-reactivity assay (competitive ELISA) of antibody NEAMP-1.3
# Format: binding, mice
# Conditions: ED50 of standard divided by ED50 of drug, times 100
# Procedure: By determining the drug concentration that results in a 50% reduction in binding (ED 50) of a standard, methamphetamine, dividing by the ED50 of each other drug, and then multiplying the result by 100, the percent cross-reactivities shown in Table 2 can be calculated.
# Microplates were coated with 100 μL Methamphetamine-BSA conjugate 28 and separate plates with 100 μL N-ethylamphetamine-BSA 26 (Q=BSA, 26b) at 1 μg/mL in 0.1 M carbonate buffer, pH 9.5 for 1 hour at 37° C. (humidified).
# A criterion for selection was binding to the Methamphetamine-BSA conjugate 28. Table 5 presents binding data for a portion of the screening of the Meth-BSA 28 and NEAMP-BSA 26 (Q=BSA, 26b) coated plates.
# Supernatants are subjected to serial dilutions and re-tested in the ELISA screen above. The dilution providing for about a 50% reduction from the maximum OD is chosen for proceeding to cross-reactivity testing. This consists of repeating the preceding assay with the antibody at the chosen dilution and in the presence of varying concentrations of drugs.
compound,measurement,value
"CNC(=C[N+](=O)[O-])NCCSCc1ccc(CN(C)C)o1 [Ranitidine (ZANTAC), ranitidine]",Percent Cross-Reactivity,0.2%
